{"source": "PubChem BioAssay AID588497", "about": "(NMMLSC, 2011)", "note": "About 780 (0.22%) of roughly 360,000 compounds were called active. Inconclusive means that the source gave no clear call. Such entries were picked first, then a sample of the others. Cut-off read from the data, not from the text of the source: active = inhibition above about 35% (passing the limit was not always enough); inconclusive = no clear call, values can overlap the other calls.", "data": [{"system": "Botulinum neurotoxin type F light chain protease (Clostridium botulinum)", "assay": "BoNT/F light chain protease inhibitors, primary screen, biochemical, flow cytometry, MLPCN library (AID 588497); note: plate controls were buffer without enzyme for full effect and enzyme alone for no effect", "details": "Multiplex microsphere protease cleavage assay, at 10 µM, active compounds read high", "values": [{"smiles": "COc1cccc(OC)c1C(=O)Nc1ccc(N2CCN(C(=O)c3ccco3)CC2)cc1", "inhibition": "inactive: -30.4%"}, {"smiles": "C=CCN(c1ccccc1)S(=O)(=O)c1ccc(Cl)c(C(=O)OCC(=O)c2[nH]c(C)c(C(C)=O)c2C)c1", "inhibition": "inactive: -0.6%"}, {"smiles": "O=C(Nc1ccc(Cl)cc1Cl)c1ccc(Br)o1", "inhibition": "inconclusive: 2.5%"}, {"smiles": "CCOC(=O)/C=C/c1nc(C(=O)OCC)c(C)c(=O)[nH]1", "inhibition": "inconclusive: 14.2%"}, {"smiles": "Cc1ccc2c(COC(=O)c3ccccc3Br)cc(=O)oc2c1", "inhibition": "inactive: -2.9%"}, {"smiles": "O=C1C2C3C=CC(C3)C2C(=O)N1Nc1ccc([N+](=O)[O-])cc1[N+](=O)[O-]", "note": "(centres undefined)", "inhibition": "inconclusive: 3.7%"}, {"smiles": "COc1ccc(C(=O)N/C(=C\\c2cn(C)c3ccccc23)C(=O)OCCN(C)C)cc1", "inhibition": "inconclusive: 59.2%"}, {"smiles": "Nn1c(SCC(=O)Nc2ccccc2)nnc(Cc2ccccc2)c1=O", "inhibition": "inconclusive: 3.8%"}, {"smiles": "COc1ccccc1-n1cnc2cc(C(=O)N3CCOCC3)ccc21", "inhibition": "inactive: -2.8%"}, {"smiles": "FC(F)(F)c1cc(Cl)c2nc(-c3ccccc3)c(Cc3cccc(Cl)c3)n2c1", "inhibition": "inactive: -3.7%"}, {"smiles": "CCCCOCCCNC(=O)N[C@H](C(=O)OC)C(C)CC", "note": "(some centres undefined)", "inhibition": "inconclusive: -152%"}, {"smiles": "CC(C)(C)c1csc(NC(=O)c2ccccc2O)n1", "inhibition": "inconclusive: 8.7%"}, {"smiles": "COc1ccc(-c2csc3ncnc(NCCCO)c23)cc1", "inhibition": "inconclusive: 27%"}, {"smiles": "CCC(C)NC(=O)c1cn(-c2cccc(OC)c2)c(=O)c2ccccc12", "note": "(centres undefined)", "inhibition": "inactive: 22.4%"}, {"smiles": "COc1ccc(C2C(C(C)=O)=C(O)C(=O)N2C)c(OC)c1", "note": "(centres undefined)", "inhibition": "inconclusive: -16.6%"}, {"smiles": "CCCN1C(=O)c2ccc(C(=O)Nc3cc(C)ccc3O)cc2C1=O", "inhibition": "inconclusive: 17.1%"}, {"smiles": "C=CCC(CC)C(=O)NC(=O)N1CCCc2ccccc21", "note": "(centres undefined)", "inhibition": "inconclusive: -12.8%"}, {"smiles": "c1ccc(CNc2c(C3CCNCC3)nc3scc(-c4ccccc4)n23)cc1", "inhibition": "inactive: 3.7%"}, {"smiles": "CC(C)c1ccc(NC(=O)C(c2ccccc2)N2CCN(C(=O)c3ccco3)CC2)cc1", "note": "(centres undefined)", "inhibition": "inconclusive: 15.4%"}, {"smiles": "C1=C(c2ccco2)N2CCN=C2S1", "inhibition": "inconclusive: -32.7%"}, {"smiles": "CCOC(=O)c1cc2ccc3ccccc3c2oc1=O", "inhibition": "inconclusive: 8.9%"}, {"smiles": "COc1cc(NC(=O)c2ccc3c(c2)OCCO3)ccc1NC(=O)c1ccccc1Cl", "inhibition": "inactive: -4%"}, {"smiles": "CC(=O)c1ccc(OC2(C)CCN(Cc3cc4ccccc4[nH]3)C2)cc1", "note": "(centres undefined)", "inhibition": "inactive: 6.2%"}, {"smiles": "CCCn1c(N)c(N(CCOC)C(=O)CSc2cc(C)c3ccccc3n2)c(=O)[nH]c1=O", "inhibition": "inactive: -7.3%"}, {"smiles": "Cc1ccc2[nH]c(=O)c(C3C(C#N)=C(N)Oc4c3ccc3cccnc43)cc2c1", "note": "(centres undefined)", "inhibition": "inactive: 1.6%"}, {"smiles": "Cc1ccc(C(=O)Cn2nnc3ccccc32)cc1[N+](=O)[O-]", "inhibition": "inconclusive: 5.4%"}, {"smiles": "COc1cc(CNCc2ccc3c(c2)OCO3)c([N+](=O)[O-])cc1OC", "inhibition": "inconclusive: -8.7%"}, {"smiles": "Cc1cccc(OCC(=O)N2CCc3ccccc3C2)c1", "inhibition": "inconclusive: -20.6%"}, {"smiles": "Cn1c(SCC(=O)N2CCCC2)nc2ccccc2c1=O", "inhibition": "inactive: 9.2%"}, {"smiles": "Cc1ccc(NC(=O)NCc2cccnc2)cc1", "inhibition": "inactive: -3.4%"}, {"smiles": "CCCCCCN1Cc2ccccc2C1", "inhibition": "inconclusive: -27.4%"}, {"smiles": "Cc1c(C(=O)Nc2ccccc2[N+](=O)[O-])csc1-c1ccccc1", "inhibition": "active: 39.3%"}, {"smiles": "CCOc1ccccc1NC(=O)CN1C(=O)COc2ccccc21", "inhibition": "inconclusive: 39.5%"}, {"smiles": "C/C(=N\\Nc1nc(C)cc(-c2ccccc2)n1)c1cccc(N)c1", "inhibition": "inconclusive: -3.6%"}, {"smiles": "COc1ccc(Nc2ncnc3ccc(Br)cc23)c(OC)c1", "inhibition": "inconclusive: -25.6%"}, {"smiles": "CC(=O)OC1CC[C@@]2(C)C(CCC3C2CC(=O)[C@@]2(C)C3CC3CC(C)=CC(=O)C32)C1", "note": "(some centres undefined)", "inhibition": "inconclusive: -31.7%"}, {"smiles": "CCCC[N+]12CCC(CC1)C(C(O)(c1ccccc1)c1ccccc1)C2", "note": "(centres undefined)", "inhibition": "inconclusive: 175%"}, {"smiles": "NC(N)=NC(=S)Nc1ccc(Cl)cc1", "inhibition": "inconclusive: -9%"}, {"smiles": "Cc1nc(SCc2ccc(Cl)c(Cl)c2)n[nH]1", "inhibition": "inconclusive: -13.8%"}, {"smiles": "O=C1C2CCCN2C(=S)N1c1ccccc1", "note": "(centres undefined)", "inhibition": "inconclusive: -0.1%"}, {"smiles": "Cc1ccc2c(c1)oc(=O)n2CC(=O)c1ccccc1", "inhibition": "inconclusive: -53.7%"}, {"smiles": "Brc1ccc(CN2CCCCCC2)cc1", "inhibition": "inconclusive: 4.1%"}, {"smiles": "COc1cc(C(=O)Nc2ccncc2)c([N+](=O)[O-])cc1OC", "inhibition": "inconclusive: 88.1%"}, {"smiles": "Cc1ccc(S(=O)(=O)/N=C(\\Sc2ccccc2)c2ccccc2)cc1", "inhibition": "inactive: -5.5%"}, {"smiles": "CN1CCC(N(C)CC(=O)Nc2ccccc2N2CCOCC2)CC1", "inhibition": "inconclusive: 20.6%"}, {"smiles": "CC(=O)Nc1cc[n+](CC(=O)c2cccc([N+](=O)[O-])c2)cc1", "inhibition": "inconclusive: -22.4%"}, {"smiles": "COC(=O)c1ccc(OCCOc2ccccc2C)cc1", "inhibition": "inconclusive: -65%"}, {"smiles": "Cc1ccc2[nH]c(CNC(=O)c3ccccc3F)cc2c1", "inhibition": "inconclusive: 34%"}, {"smiles": "COC(OC)c1ccc(C#N)c(SCc2ccc(C)cc2)n1", "inhibition": "inconclusive: -4.7%"}, {"smiles": "CC1(C)Cc2ccccc2C(=NC(Cc2ccccc2)C(=O)O)N1", "note": "(centres undefined)", "inhibition": "inconclusive: 22.1%"}, {"smiles": "Cc1cc2c(cc1C)NC(c1cccnc1)C1=C(CC(C)(C)CC1=O)N2", "note": "(centres undefined)", "inhibition": "inactive: 1.1%"}, {"smiles": "Cc1nn(Cc2cccc(C(=O)NN)c2)c(C)c1Cl", "inhibition": "inconclusive: -34.5%"}, {"smiles": "O=C(NC1(C(F)(F)F)C(=O)Nc2c1c(=O)[nH]c(=O)n2-c1ccc(F)cc1)c1cccnc1", "note": "(centres undefined)", "inhibition": "inactive: 4.1%"}, {"smiles": "Cc1ccc(-c2cc(C(=O)N/N=C/c3c(C)nn(C)c3C)c3ccccc3n2)cc1C", "inhibition": "inactive: -9.1%"}, {"smiles": "CCC(=O)c1cn(CC(=O)Nc2ccc(OC)cc2)c2ccccc12", "inhibition": "inconclusive: -36.1%"}, {"smiles": "CCCc1n[nH]c2c1C(=O)C(C(=O)OC)C(C)(C)C2", "note": "(centres undefined)", "inhibition": "inconclusive: 5.9%"}, {"smiles": "C=CCNC(=O)C1CC(=O)N(c2ccc(OCc3ccc(F)cc3)cc2)C1", "note": "(centres undefined)", "inhibition": "inconclusive: 7.4%"}, {"smiles": "O=C(c1ccc2ccccc2c1)N1CCCC1", "inhibition": "inactive: 20.4%"}, {"smiles": "CCCCn1nc(C(=O)NCC(=O)Nc2c(C)cccc2C)c2ccccc2c1=O", "inhibition": "inactive: -1.6%"}, {"smiles": "CCOC(=O)c1ccc(OC)c(OC)c1Cl", "inhibition": "inconclusive: 0.6%"}, {"smiles": "O=C1c2ccccc2C(Nc2ccc(Cl)cc2)N1CCN1CCOCC1", "note": "(centres undefined)", "inhibition": "inactive: -2%"}, {"smiles": "COc1ccc(NC(=O)/C(Cl)=C(/Cl)S(=O)(=O)Cc2ccc(C)cc2)cn1", "inhibition": "inconclusive: 3.5%"}, {"smiles": "CC1CN(C(NC(=O)C(C)(C)C)C(Cl)(Cl)Cl)CC(C)O1", "note": "(centres undefined)", "inhibition": "inconclusive: -9.9%"}, {"smiles": "CNc1nc(N)c([N+](=O)[O-])c(Nc2cccc(Cl)c2)n1", "inhibition": "inconclusive: -45%"}, {"smiles": "O=C(Nc1ccncc1)c1ccc(Cl)c(S(=O)(=O)N2CCc3ccccc32)c1", "inhibition": "inconclusive: 13.8%"}, {"smiles": "COc1ccc(C2=NOC3(CC(=O)N(c4ccc(F)cc4)C3=O)C2)cc1", "note": "(centres undefined)", "inhibition": "inconclusive: 23.2%"}, {"smiles": "Cc1cc(C)c(OCC(=O)OCC(=O)N(C)C2CCS(=O)(=O)C2)c(C)c1", "note": "(centres undefined)", "inhibition": "inactive: 3.1%"}, {"smiles": "CC(C)c1[nH]nc2c1C(C1C=CCCC1)C(C#N)=C(N)O2", "note": "(centres undefined)", "inhibition": "inconclusive: -144%"}, {"smiles": "CCc1ccc(CN(C)CC(=O)Nc2ccc(S(=O)(=O)N3CCOCC3)cc2)cc1", "inhibition": "inactive: 1.3%"}, {"smiles": "Cc1cnc(C(=O)OCC(=O)NC23CC4CC(CC(C4)C2)C3)cn1", "inhibition": "inactive: 0.1%"}, {"smiles": "C[C@H]1COc2cc(N(C)CCO)ccc2S(=O)(=O)N1", "inhibition": "inactive: 0.6%"}, {"smiles": "O/N=C/c1ccnc(SCc2ccccc2)n1", "inhibition": "inconclusive: -9.1%"}, {"smiles": "COc1ccc(N=C(C)c2c(O)[nH]c(=O)[nH]c2=O)cc1", "inhibition": "inconclusive: -13.1%"}, {"smiles": "Cc1ccc(Cn2cc(CN3CC(N(C)C)CS3(=O)=O)nn2)cc1", "note": "(centres undefined)", "inhibition": "inactive: -0.5%"}, {"smiles": "CC(C)C(=O)NNC(=O)CSc1nnc(-c2ccccc2)c(-c2ccccc2)n1", "inhibition": "inconclusive: 31.3%"}, {"smiles": "CCOc1ccccc1NC(=O)CSc1nnc(CNC(=O)c2cccs2)o1", "inhibition": "inactive: -1.5%"}, {"smiles": "CCCCOC(=O)Nc1cc(OC)c(Cl)cc1OC", "inhibition": "inactive: 0.1%"}, {"smiles": "Cn1c(=O)c(C(=O)NC2CCCCCC2)c(O)c2ccccc21", "inhibition": "inconclusive: -5.1%"}, {"smiles": "COc1ccc2ccccc2c1CN1CCSCC1", "inhibition": "inconclusive: -289%"}, {"smiles": "CCc1ccc(C2C(C#N)=C(N)Oc3cc(N)ccc32)cc1", "note": "(centres undefined)", "inhibition": "inconclusive: -35.3%"}, {"smiles": "Cc1ncc([N+](=O)[O-])n1CCOC(N)=O", "inhibition": "inconclusive: -16.3%"}, {"smiles": "COc1ccc(C(=O)Nc2nnc(Cc3ccccc3)s2)c(OC)c1", "inhibition": "inconclusive: -10%"}, {"smiles": "Cc1cc(=O)n2c3ccccc3n(CC(O)CN3CCN(Cc4ccccc4)CC3)c2c1C#N", "note": "(centres undefined)", "inhibition": "inconclusive: 84.4%"}, {"smiles": "Cc1cccc(NC(=O)C2CCCN(C(=O)Nc3ccc(F)cc3)C2)c1", "note": "(centres undefined)", "inhibition": "inactive: -2.1%"}, {"smiles": "CN(C(=O)c1cc(C(=O)N(C)c2ccccc2)cc([N+](=O)[O-])c1)c1ccccc1", "inhibition": "inconclusive: 9%"}, {"smiles": "Cc1nc(=S)n(-c2ccccc2)[nH]1", "inhibition": "inconclusive: -6.8%"}, {"smiles": "O=C(NNC(=O)c1ccc(F)cc1)c1ccncc1", "inhibition": "inconclusive: -13.3%"}, {"smiles": "O=C(NNC(=O)c1c(O)c2ccccc2[nH]c1=O)c1ccccc1Br", "inhibition": "inactive: -0.1%"}, {"smiles": "COc1ccc(N=C2NC(=O)/C(=C/C=C/c3ccccc3)S2)cc1", "inhibition": "inconclusive: -11.1%"}, {"smiles": "O=[N+]([O-])c1ccccc1CCl", "inhibition": "inactive: -5.7%"}, {"smiles": "CCCCSc1nc2c([nH]1)c(=S)n(C)c(=O)n2C", "inhibition": "inactive: 8.2%"}, {"smiles": "O=C(CSc1nc2ccccc2c(=O)n1CCCN1CCOCC1)Nc1ccccc1OC(F)F", "inhibition": "inactive: -3.8%"}, {"smiles": "Cc1cc2ncc(-c3ccccc3)nc2cc1C", "inhibition": "inactive: 0.8%"}, {"smiles": "COc1ccc2c(c1)CC/C(=C\\c1ccc(C)o1)C2=O", "inhibition": "inconclusive: 17.6%"}]}]}
